The supplement of paper PMC7024190
Structures can show the parent of a compound that is named as a salt. The list shows a part of the results. Single values are uncertain here, since repeats match poorly.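 The cells were human embryonic kidney cells carrying a Renilla luciferase gene, driven by the HSV-TK promoter, on a plasmid put in briefly by transfection. This is the first-round screen of about ten thousand compounds, looking for ones that raise reporter output.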

Each compound was assayed on HEK 293FT (assay: log relative Renilla luciferase luminescence (reporter expression vs reference, reference not stated) (log (base not stated)); higher = higher recombinant reporter expression). Conditions: 10 µM; time after transfection 48 h.

CC[C@@H]1Cn2c(c3nc(-c4ccccc4)nc-3n(C)c2=O)N1 and CCc1ccc2c(-c3cccc(Cl)c3)nc(=O)n(CC)c2n1 are within 0.2 log units of each other in log: -0.022 for the first, 0.148 for the second.

First: COc1cc2ncn(-c3cc(OCc4ccccc4C(F)(F)F)c(C(N)=O)s3)c2cc1OC
Second: CNc1cc2c(Nc3cccc(Br)c3)ncnc2cn1
The log of the first is higher: 0.359 for the first, -0.713 for the second.

CCS(=O)(=O)N(C)[C@H]1c2cc(C#N)ccc2OC(C)(C)[C@@H]1O (racemic) [Chromanol 293B] and CCC(=O)O[C@]1(C(=O)SCF)[C@H](C)C[C@H]2[C@@H]3C[C@H](F)C4=CC(=O)C=C[C@]4(C)[C@@]3(F)[C@@H](O)C[C@@]21C [Fluticasone propionate] are within 0.2 log units of each other in log: 0.0106 for the first, 0.00849 for the second.

Cc1nn(C)c2nc(NNC(=O)Nc3cc(Cl)nc(Cl)c3)cc(C(C)C)c12 and NS(=O)(=O)c1cccc2c1c([N+](=O)[O-])cc1nc(O)c(O)nc12 are within 0.2 log units of each other in log: -0.0623 for the first, 0.0674 for the second.

COc1ccccc1N1CCN(CCN2C(=O)CC3(CCCC3)CC2=O)CC1 [BMY 7378 dihydrochloride] and Cc1nc2c(c(=O)[nH]1)CSCC2 are within 0.2 log units of each other in log: 0.023 for the first, -0.0661 for the second.

Cc1ccc(C(=O)Nc2ccc(S(=O)(=O)O)c3cc(S(=O)(=O)O)cc(S(=O)(=O)O)c23)cc1NC(=O)c1cccc(NC(=O)Nc2cccc(C(=O)Nc3cc(C(=O)Nc4ccc(S(=O)(=O)O)c5cc(S(=O)(=O)O)cc(S(=O)(=O)O)c45)ccc3C)c2)c1 [Suramin hexasodium salt] and O=[N+]([O-])c1cccc2cn[nH]c12 [7-Nitroindazole] are within 0.2 log units of each other in log: 0.114 for the first, 0.0438 for the second.
